Here are results for one molecule from patent publication US20020045741A1.

No constants are given. Whether binding was seen depends on the method and setting. Binding seen in cells or lysates may run through a third protein. Some entries that bind do so weakly or less than the wild type. Where a sequence is shown, tags or fusion partners need not be part of it.

This assay concerns the target T1, C'-terminal I-SPY-tagged human NR6 (pEF-C'-I-SPY/hNR6, from 293T cells) (human) (UniProt O75462).
T1 sequence: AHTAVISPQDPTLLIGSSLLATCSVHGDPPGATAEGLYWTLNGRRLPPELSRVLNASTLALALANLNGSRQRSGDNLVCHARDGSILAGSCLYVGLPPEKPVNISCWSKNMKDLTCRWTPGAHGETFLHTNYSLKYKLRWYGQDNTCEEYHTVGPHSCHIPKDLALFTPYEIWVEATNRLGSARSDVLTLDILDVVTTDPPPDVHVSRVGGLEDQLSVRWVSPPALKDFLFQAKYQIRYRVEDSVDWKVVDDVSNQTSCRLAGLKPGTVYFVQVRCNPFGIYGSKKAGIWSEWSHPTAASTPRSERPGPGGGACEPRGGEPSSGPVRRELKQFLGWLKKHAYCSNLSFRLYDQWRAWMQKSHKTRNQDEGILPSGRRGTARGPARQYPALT
Put plainly: co-immunoprecipitation from cotransfected 293T supernatant (anti-I-SPY resin, anti-FLAG blot); association of monomer chains.

B1: C-terminal FLAG-tagged human NR6 (pEF-C'-FLAG/hNR6, from 293T or CHO cells) (receptor)
chain: AHTAVISPQDPTLLIGSSLLATCSVHGDPPGATAEGLYWTLNGRRLPPELSRVLNASTLALALANLNGSRQRSGDNLVCHARDGSILAGSCLYVGLPPEKPVNISCWSKNMKDLTCRWTPGAHGETFLHTNYSLKYKLRWYGQDNTCEEYHTVGPHSCHIPKDLALFTPYEIWVEATNRLGSARSDVLTLDILDVVTTDPPPDVHVSRVGGLEDQLSVRWVSPPALKDFLFQAKYQIRYRVEDSVDWKVVDDVSNQTSCRLAGLKPGTVYFVQVRCNPFGIYGSKKAGIWSEWSHPTAASTPRSERPGPGGGACEPRGGEPSSGPVRRELKQFLGWLKKHAYCSNLSFRLYDQWRAWMQKSHKTRNQDEGILPSGRRGTARGPARDYKDDDDK
Turning to B1, the binding entry is given as “binds”.
